The list is a part of this screen's results and no random one: it is rich in T/C values a quarter to a half above the control, in often repeated tests (any T/C) and in doses without a T/C. Other doses and runs of a compound stand elsewhere. T/C is the treated group as % of the vehicle group. Some entries give survivors of the animals treated and no T/C: the source files T/C as zero there, which appears to mark a toxic dose or a test without result, not a measured value. Some survivor counts are full or nearly so, which does not show that the dose was tolerated: survival well below the control is almost never listed, so the zero probably covers shortened survival too. Counts of survivors are from the toxicity check (mostly the fifth day) where no day follows; animals may have died later. Schedule codes are those of the source, taken here to give the interval after Q, in days (D) or hours (H), and the number of doses after X. Some entries hold several experiments; the values are given in rising order. Where survival is the endpoint, the PubChem record calls one and a half times the control and up active, and a quarter to a half above the control has no call in these data; cut-offs in other NCI protocols can differ. Some T/C values carry the count of animals alive at the toxicity check (mostly the fifth day); without a count, all were alive then.
Tested on: L1210 leukemia ip in BDF1 mice, survival T/C
Assay: NCI In Vivo Anticancer Drug Screen. Data for tumor model L1210 Leukemia (intraperitoneal) in B6D2F1 (BDF1) mice
Details: T/C endpoint: mean survival time, higher T/C = longer survival
[1] = dose: 200.0 mg/kg/injection, schedule: Q04DX003 (ip), vehicle: saline with Tween-80
[2] = dose: 400.0 mg/kg/injection, schedule: Q04DX003 (ip), vehicle: saline with Tween-80
[3] = dose: 400.0 mg/kg/injection, schedule: Q04DX002 (ip), vehicle: saline
[4] = dose: 200.0 mg/kg/injection, schedule: Q01DX009 (ip), vehicle: saline with Tween-80
[5] = dose: 400.0 mg/kg/injection, schedule: Q01DX009 (ip), vehicle: saline with Tween-80
[6] = dose: 400.0 mg/kg/injection, schedule: Q01DX009 (ip), vehicle: saline
[7] = dose: 200.0 mg/kg/injection, schedule: Q01DX001 (ip), vehicle: carboxymethylcellulose (CMC)
[8] = dose: 200.0 mg/kg/injection, schedule: Q01DX009 (ip), vehicle: Klucel (hydroxypropylcellulose) (HPC)
[9] = dose: 400.0 mg/kg/injection, schedule: Q01DX009 (ip), vehicle: Klucel (hydroxypropylcellulose) (HPC)
[10] = dose: 200.0 mg/kg/injection, schedule: Q01DX001 (ip), vehicle: saline
[11] = dose: 400.0 mg/kg/injection, schedule: Q01DX001 (ip), vehicle: saline

## COc1cc2cc3cc4cc(OC)c(OC)cc4c(C)[n+]3cc2cc1OC (tested in a mixture with another compound)
dose: 20.0 mg/kg/injection, schedule: Q01DX009 (ip), vehicle: saline
  T/C: 130 % of control [5 of 6 alive]
dose: 160.0 mg/kg/injection, schedule: Q01DX009 (ip), vehicle: saline
  survivor count: 5 of 6

## CCCCCCCCCC(=O)OCCN1CCN(CCCN2c3ccccc3Sc3ccc(C(F)(F)F)cc32)CC1
dose: 3.12 mg/kg/injection, schedule: Q01DX009 (ip), vehicle: alcohol
  survivor count: 6 of 6
dose: 6.25 mg/kg/injection, schedule: Q01DX009 (ip), vehicle: alcohol
  survivor count: 6 of 6
dose: 12.5 mg/kg/injection, schedule: Q01DX009 (ip), vehicle: alcohol
  survivor count: 6 of 6
dose: 25.0 mg/kg/injection, schedule: Q01DX009 (ip), vehicle: alcohol
  survivor count: 5 of 6
dose: 50.0 mg/kg/injection, schedule: Q04DX003 (ip), vehicle: saline with Tween-80
  survivor count: 0 of 4
dose: 100.0 mg/kg/injection, schedule: Q04DX003 (ip), vehicle: saline with Tween-80
  survivor count: 0 of 4
[1]
  survivor count: 0 of 4
[2]
  survivor count: 0 of 4

## NC(CCl)=NCCOC12CC3CC(CC(C3)C1)C2
dose: 200.0 mg/kg/injection, schedule: Q04DX002 (ip), vehicle: saline
  survivor count: 0 of 3
[3]
  survivor count: 0 of 3

## O=C(O)c1ccc(C(=O)O)nn1
[3]
  survivor count: 1 of 3

## CC(=O)OC1CC2(O)C(CCC3(C)C(c4ccc(=O)oc4)CCC32O)C2(C)C1=CC(O)C1OC12 (stereo unspecified)
dose: 4.0 mg/kg/injection, schedule: Q01DX001 (sc), vehicle: steroid suspending solution
  survivor count: 1 of 6

## C=CC[P+](Cc1cccc(C)c1)(c1ccccc1)c1ccccc1
dose: 3.13 mg/kg/injection, schedule: Q01DX009 (ip), vehicle: saline with Tween-80
  survivor count: 1 of 3
dose: 12.5 mg/kg/injection, schedule: Q01DX009 (ip), vehicle: saline with Tween-80
  survivor count: 1 of 3
dose: 25.0 mg/kg/injection, schedule: Q01DX009 (ip), vehicle: saline with Tween-80
  survivor count: 0 of 3
dose: 50.0 mg/kg/injection, schedule: Q01DX009 (ip), vehicle: saline with Tween-80
  survivor count: 0 of 3
dose: 100.0 mg/kg/injection, schedule: Q01DX009 (ip), vehicle: saline with Tween-80
  survivor count: 0 of 3
[4]
  survivor count: 0 of 3

## COCC(=O)C(C(C)=O)C(c1ccc2c(c1)OCO2)C(C(C)=O)C(=O)COC (stereo unspecified)
[4]
  survivor count: 6 of 6
[5]
  survivor count: 6 of 6

## N=C(N)c1ccc(C(=N)N)cc1
dose: 200.0 mg/kg/injection, schedule: Q01DX009 (ip), vehicle: water
  survivor count: 0 of 6

## COc1cc(C(O)CN)cc(OC)c1OC (stereo unspecified)
[6]
  survivor count: 3 of 6

## c1ccc2c(c1)[nH]c1ccncc12
[4]
  survivor count: 0 of 6
[1]
  survivor count: 4 of 6
[5]
  survivor count: 0 of 6
[2]
  survivor count: 3 of 6

## C[n+]1ccc(C#N)c2ccccc21
dose: 25.0 mg/kg/injection, schedule: Q01DX009 (ip), vehicle: saline
  survivor count: 4 of 6
dose: 25.0 mg/kg/injection, schedule: Q04DX003 (ip), vehicle: saline
  survivor count: 2 of 6
dose: 50.0 mg/kg/injection, schedule: Q01DX009 (ip), vehicle: saline
  survivor count: 0 of 6
dose: 50.0 mg/kg/injection, schedule: Q04DX003 (ip), vehicle: saline
  survivor count: 0 of 6

## COc1cc(SSc2ccc(N)c(OC)c2)ccc1N
dose: 300.0 mg/kg/injection, schedule: Q01DX001 (ip), vehicle: carboxymethylcellulose (CMC)
  survivor count: 1 of 6

## NC1(C(=O)O)CCCc2ccc(N(CCCl)CCCl)cc21 (stereo unspecified)
dose: 0.9 mg/kg/injection, schedule: Q01DX009 (ip), vehicle: carboxymethylcellulose (CMC)
  T/C: 127 % of control
dose: 1.89 mg/kg/injection, schedule: Q01DX009 (ip), vehicle: carboxymethylcellulose (CMC)
  T/C: 136 % of control
dose: 3.6 mg/kg/injection, schedule: Q01DX009 (ip), vehicle: carboxymethylcellulose (CMC), evaluated on day 30
  T/C: 133 % of control
dose: 3.6 mg/kg/injection, schedule: Q01DX009 (ip), vehicle: carboxymethylcellulose (CMC), run until all animals had died
  T/C: 134 % of control
dose: 3.78 mg/kg/injection, schedule: Q01DX009 (ip), vehicle: carboxymethylcellulose (CMC)
  T/C: 139 % of control
dose: 5.5 mg/kg/injection, schedule: Q01DX009 (ip), vehicle: carboxymethylcellulose (CMC), evaluated on day 30
  T/C: 136 % of control
dose: 5.5 mg/kg/injection, schedule: Q01DX009 (ip), vehicle: carboxymethylcellulose (CMC), run until all animals had died
  T/C: 132 % of control
dose: 6.48 mg/kg/injection, schedule: Q01DX009 (ip), vehicle: carboxymethylcellulose (CMC)
  T/C: 147 % of control
dose: 8.3 mg/kg/injection, schedule: Q01DX009 (ip), vehicle: carboxymethylcellulose (CMC)
  T/C: 135 % of control [5 of 6 alive]
dose: 12.0 mg/kg/injection, schedule: Q01DX001 (ip), vehicle: carboxymethylcellulose (CMC)
  T/C: 137 % of control
dose: 16.6 mg/kg/injection, schedule: Q01DX001 (ip), vehicle: carboxymethylcellulose (CMC)
  T/C: 133 % of control
dose: 24.0 mg/kg/injection, schedule: Q01DX001 (ip), vehicle: carboxymethylcellulose (CMC)
  T/C: 130 and 141 % of control [5 of 6 alive]
dose: 25.0 mg/kg/injection, schedule: Q01DX001 (ip), vehicle: carboxymethylcellulose (CMC)
  T/C: 137 and 149 % of control
dose: 25.0 mg/kg/injection, schedule: Q01DX009 (ip), vehicle: carboxymethylcellulose (CMC)
  survivor count: 4 of 6
dose: 36.0 mg/kg/injection, schedule: Q01DX001 (ip), vehicle: carboxymethylcellulose (CMC)
  T/C: 135 % of control
dose: 36.0 mg/kg/injection, schedule: Q01DX009 (ip), vehicle: carboxymethylcellulose (CMC)
  survivor count: 5 of 6
dose: 37.5 mg/kg/injection, schedule: Q01DX001 (ip), vehicle: carboxymethylcellulose (CMC)
  survivor count: 2 of 6
dose: 72.0 mg/kg/injection, schedule: Q01DX009 (ip), vehicle: carboxymethylcellulose (CMC)
  survivor count: 5 of 6
dose: 96.0 mg/kg/injection, schedule: Q01DX001 (ip), vehicle: carboxymethylcellulose (CMC)
  survivor count: 0 of 6
dose: 100.0 mg/kg/injection, schedule: Q01DX001 (ip), vehicle: carboxymethylcellulose (CMC)
  survivor count: 0 of 6 and 2 of 6
[7]
  survivor count: 0 of 6
dose: 400.0 mg/kg/injection, schedule: Q01DX001 (ip), vehicle: carboxymethylcellulose (CMC)
  survivor count: 1 of 6

## O=C1c2ccccc2C(C2c3ccccc3C(=O)c3ccccc32)c2ccccc21
[7]
  survivor count: 4 of 4

## O=C(Nc1ccc(F)c([N+](=O)[O-])c1)Oc1cc(=O)oc2ccccc12
[8]
  survivor count: 3 of 3
dose: 300.0 mg/kg/injection, schedule: Q01DX009 (ip), vehicle: Klucel (hydroxypropylcellulose) (HPC)
  survivor count: 1 of 6 and 3 of 3
[9]
  survivor count: 0 of 3 and 3 of 6

## CCCCCCN(CCCCCC)P(=O)(N1CC1C)N1CC1C (stereo unspecified)
[10]
  survivor count: 1 of 4
[11]
  survivor count: 0 of 4

## O=C1OCCC1[P+](c1ccccc1)(c1ccccc1)c1ccccc1 (stereo unspecified)
[10]
  survivor count: 0 of 4
[11]
  survivor count: 0 of 4

## COc1cccc(/C=C2/COC/C(=C\c3cccc(OC)c3OC)C2=O)c1OC
[6]
  survivor count: 2 of 6

## CC(=O)C[P+](c1ccccc1)(c1ccccc1)c1ccccc1
dose: 100.0 mg/kg/injection, schedule: Q04DX003 (ip), vehicle: saline
  survivor count: 3 of 6
dose: 200.0 mg/kg/injection, schedule: Q04DX003 (ip), vehicle: saline
  survivor count: 0 of 6
dose: 400.0 mg/kg/injection, schedule: Q04DX003 (ip), vehicle: saline
  survivor count: 0 of 6

## COc1ccc(NC(=O)Oc2ccccc2C(N)=O)c(OC)c1
[8]
  survivor count: 4 of 6
[9]
  survivor count: 0 of 6

## CC1NC(=S)NC(=O)C1CCSC(=N)N (stereo unspecified)
[11]
  survivor count: 2 of 6

## O=C(O)c1cccc([N+](=O)[O-])c1C(=O)O
[5]
  survivor count: 0 of 3
